Experimental data: PubChem BioAssay AID652243 (Drosophila RNAi Screening Center, 2013)

- Assay: 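Knock-downs that decrease or increase androgen receptor reporter signal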 (primary screen)
- Cells: Drosophila S2R+ cells
- Knock-down reagent: long dsRNA against Drosophila genes
- Time to read-out: 72 h (48 h, then 24 h hormone)
- Challenge: synthetic androgen R1881 at 10 nM for 24 h
- Measured: 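Per-well raw luminescence of the androgen-driven firefly reporter and of the Renilla control, two replicates each, without normalisation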
- Scale: firefly reporter light: higher = more light from androgen-responsive reporter; Renilla control light: higher = more constitutive control signal (cell number, transfection)
- Call rule: 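Across duplicate plates, a knock-down whose log firefly/Renilla ratio shifted a set fold down or up from the GFP/LacZ control mean was a hit; the downward cut appears as both 1.5 and 3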
- Calls: active = hit: reporter lowered or raised; inactive = no hit
In all, the deposit lists about 24,000 reagents; below is a random part of those that have a named target and a result. In the full data, 246 (1%) got an active call. 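Plates not normalised; calls are printed but the firefly/Renilla ratio behind them is not deposited; fold cut for lowering reported inconsistently.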 The raw values are shown without normalisation. Not stated in the record: the amount of reagent.

gene knocked down	dsRNA	firefly reporter light, replicate 1	firefly reporter light, replicate 2	Renilla control light, replicate 1	Renilla control light, replicate 2	call
aust (australin)	DRSC02558	1.37e5	1.64e5	1.43e6	1.35e6	inactive
aust (australin)	DRSC26019	4.83e5	3.41e5	8.31e5	6.48e5	inactive
gek (genghis khan)	DRSC04688	6.82e5	6.37e5	1.28e6	1.10e6	inactive
gek (genghis khan)	DRSC36740					inactive
gek (genghis khan)	DRSC36741					inactive
Alms1a (Alstrom syndrome 1a)	DRSC18558	1.35e5	2.41e5	1.97e6	2.49e6	inactive
CG6729	DRSC02984	4.01e5	3.44e5	3.51e6	3.52e6	inactive
CG6729	DRSC22793	4.89e5	8.14e5	8.22e5	8.52e5	inactive
CG6729	DRSC29961	4.65e5	3.19e5	1.21e6	7.51e5	inactive

Ordered by “Renilla control light, replicate 1” (low to high): some entries from above.
gene knocked down	dsRNA	firefly reporter light, replicate 1	firefly reporter light, replicate 2	Renilla control light, replicate 1	Renilla control light, replicate 2	call
CG6729	DRSC22793	4.89e5	8.14e5	8.22e5	8.52e5	inactive
CG6729	DRSC29961	4.65e5	3.19e5	1.21e6	7.51e5	inactive
Alms1a (Alstrom syndrome 1a)	DRSC18558	1.35e5	2.41e5	1.97e6	2.49e6	inactive
CG6729	DRSC02984	4.01e5	3.44e5	3.51e6	3.52e6	inactive

The list goes on.
gene knocked down	dsRNA	firefly reporter light, replicate 1	firefly reporter light, replicate 2	Renilla control light, replicate 1	Renilla control light, replicate 2	call
obst-B (obstructor-B)	DRSC01987	1.20e6	1.13e6	2.06e6	2.24e6	inactive
CG3699	DRSC18171	2.35e5	3.10e5	4.83e6	3.11e6	inactive
CG3699	DRSC18642	2.67e5	3.04e5	3.71e6	3.93e6	inactive
Or49a (Odorant receptor 49a)	DRSC07493	2.74e5	2.04e5	1.52e6	1.37e6	inactive
CG32751	DRSC21770	4.10e5	4.15e5	6.18e5	1.13e6	inactive
CG16863	DRSC01892	2.14e5	2.06e5	1.78e6	2.03e6	inactive
Hsc70-3 (Heat shock protein 70 cognate 3)	DRSC20253	2.43e5	2.96e5	2.21e6	2.14e6	inactive
Hsc70-3 (Heat shock protein 70 cognate 3)	DRSC25105	3.51e5	3.86e5	3.70e5	4.19e5	inactive
GluRIIC (Glutamate receptor IIC)	DRSC00642	6.10e5	8.24e5	1.32e6	1.28e6	inactive
Spn75F (Serpin 75F)	DRSC09589	1.51e5	1.52e5	3.03e5	3.39e5	inactive
Rsph9 (Radial spoke head protein 9)	DRSC01594	1.35e5	1.88e5	4.52e5	7.40e5	inactive
Rsph9 (Radial spoke head protein 9)	DRSC25908	5.00e5	4.02e5	1.33e6	1.13e6	inactive
CG42760 (retired record)	DRSC39067	4.88e5	4.19e5	1.12e6	1.22e6	inactive
cag	DRSC07587	3.70e5	2.00e5	1.88e6	1.75e6	inactive
cag	DRSC29225	5.45e5	4.37e5	1.26e6	1.03e6	inactive
